# PubChem BioAssay AID485353 (National Center for Advancing Translational Sciences (NCATS), 2010)
# The campaign covered roughly 330,000 compounds. About 610 (0.18%) were called active. The shares of active, inactive and inconclusive entries below differ from those in the screen. Calls come from the whole dose curve. A potency beside an inconclusive call is a rough fit, not a confirmed value.
# Test: qHTS of Yeast-based Assay for SARS-CoV PLP; note: nearly all actives have a fitted effect of over 55% in size; for activity, positive = growth rescue: 0% is about no effect
# Details: S. cerevisiae expressing SARS-CoV PLpro; Potency: growth rescue; activity, positive = growth rescue: at 32.9 µM (top of the series)
# Potency is the fitted concentration of half-maximal effect.
SMILES,Potency,"activity, positive = growth rescue"
CCOC(=O)c1c(NC(=O)Cc2ccccc2)sc2c1CCN(C)C2,"inconclusive: 3.98 µM [activator, single point]",–
O=C1Nc2ccccc2O/C1=C\c1c(F)cccc1Cl,–,inactive: -2.12%
COc1ccc(C(CNC(=O)c2ccc(Cl)c(S(=O)(=O)N3CCCC3)c2)N2CCCC2)cc1 (stereo not given),–,inactive: 6.73%
S=C(NCc1ccco1)N/N=C/c1ccc(Cl)cc1,"inconclusive: 20 µM [activator, single point]",–
O=S1(=O)CC/C(=N\O)c2ccccc21,"inconclusive: 2.82 µM [activator, single point]",–
CCC(CC)NC(=O)COC(=O)CCC(=O)c1cccs1,"inconclusive: 22.4 µM [activator, partial curve]",–
COC(=O)c1ccc(N=NN2CCOCC2)cc1,"inconclusive: 14.1 µM [activator, partial curve, poor fit]",–
CC(=O)N1CCN(C(=O)c2ccc3oc(CCCc4ccccc4)nc3c2)CC1,"inconclusive: 3.98 µM [activator, single point]",–
CCc1ccc(N(C(=O)CCC(=O)Nc2cc(C)on2)C(C(=O)NC2CCCC2)c2ccco2)cc1 (stereo not given),"inconclusive: 4.47 µM [activator, single point]",–
CCCNC(=O)C(Cc1ccc(I)cc1)NC(=O)c1ccc2ccccc2n1 (stereo not given),–,inactive: -29.6%
COc1ccc(CCNC(=O)c2cccc3c2C(=O)N(C2CCCCC2)C3)cc1OC,"inconclusive: 10 µM [activator, partial curve]",–
Cc1cccc(NC(=O)c2cc(NC(=O)c3ccco3)ccc2N2CCCCC2)c1,–,inactive: -2.74%
C(=N\Nc1nc(-c2ccccc2)cs1)/c1cccs1,"inconclusive: 3.16 µM [activator, single point]",–
O=[N+]([O-])c1cccc(S(=O)(=O)NCC2CCCO2)c1 (stereo not given),"inconclusive: 22.4 µM [activator, partial curve]",–
O=[N+]([O-])c1ccccc1CN1CCN(c2ncccn2)CC1,"inconclusive: 4.47 µM [activator, full curve, poor fit]",–
CC(C)(C)c1cc(NC(=O)Nc2ccc(Br)cc2Cl)no1,–,inactive: -1.24%
CCNC(=O)N1c2ccc(OCC)cc2C(C)=CC1(C)C,"inconclusive: 11.2 µM [activator, partial curve]",–
CS(=O)(=O)Nc1ccc(C(=O)Nc2ccc(S(=O)(=O)Nc3nccs3)cc2)cc1,"inconclusive: 20 µM [activator, single point]",–
Cc1ccc(C)c(-n2cc[nH]c2=S)c1,"inconclusive: 22.4 µM [activator, partial curve]",–
O=C1C=C(NCc2ccco2)CC(c2ccc(Cl)cc2)C1 (stereo not given),–,inactive: -6.66%
COc1ccc(NC(=O)CSc2nc3c(c(=O)n2-c2ccc(C)cc2)SCC3)c(OC)c1,"inconclusive: 1 µM [activator, partial curve]",–
O=C(COc1ccc(/C=N/NS(=O)(=O)c2ccccc2)cc1)NCCc1ccccc1,"inconclusive: 3.16 µM [activator, partial curve]",–
CCC(=O)c1c[nH]c(C(=O)NCc2ccccc2OC)c1,–,inactive: -0.716%
CCOC(=O)C1=C(C)N(C)C(=O)NC1c1cccc(O)c1 (stereo not given),"inconclusive: 14.1 µM [activator, single point]",–
CCOc1ccc(C(=O)NCC(c2cccs2)N(C)C)cc1OCC (stereo not given),"inconclusive: 22.4 µM [activator, single point]",–

SMILES,Potency,"activity, positive = growth rescue"
C=CCN1CCN(c2ccncc2S(=O)(=O)N2CCCCC2)CC1,"inconclusive: 4.47 µM [activator, single point]",–
O=Cc1c(N2CCSCC2)nc2ccccn2c1=O,–,inactive: -0.214%
O=C(N/N=C/c1ccc(OC(=O)c2ccccc2Br)cc1)c1ccccn1,"inconclusive: 4.47 µM [activator, single point]",–
CCOC(=O)c1nc(C)sc1-c1ccnn1S(=O)(=O)c1ccc(C)cc1,–,inactive: -1.61%
O=C(Nc1ccccc1C(F)(F)F)c1ccc(F)c(S(=O)(=O)N2CCOCC2)c1,"inconclusive: 11.2 µM [activator, single point]",–
CCC(c1nnnn1CCC(C)C)N1CCC(C(N)=O)CC1 (stereo not given),"inconclusive: 3.98 µM [activator, single point]",–
Cc1ncc(CO)c2c1OC(C)(C)OC2,"inconclusive: 4.47 µM [activator, single point]",–
COC(=O)C1=C(C)N(Cc2ccc(C)cc2)C(=O)/C1=C\c1ccc(O)c(OC)c1,–,inactive: 3.12%
O=C(CSc1nnc(COc2ccccc2F)n1-c1ccccc1)NC1CCS(=O)(=O)C1 (stereo not given),"inconclusive: 8.91 µM [activator, single point]",–
COc1ccc(CN2CCNCC2)cc1,"inconclusive: 14.1 µM [activator, single point]",–
COc1cccc2[nH]c3ccccc3c(=O)c12,–,inactive: -7.51%
CCN(C(=O)CSc1nnc(SC)s1)c1c(N)n(Cc2ccccc2)c(=O)[nH]c1=O,–,inactive: -4.7%
Cc1cccc(OCCn2c(=O)sc3ccccc32)c1,–,inactive: -3.37%
COc1cccc(CNc2cccc(C(F)(F)F)c2)c1O,–,inactive: -8.38%
CCN1CCN(C(c2cccs2)C(C)NS(=O)(=O)c2ccccc2)CC1 (stereo not given),–,inactive: -2.15%
Cc1ccc(S(=O)(=O)N(CC(=O)Nc2ccccc2C(=O)O)c2ccccc2)cc1,–,inactive: 0.733%
COc1ccc(/C=N/NC(=O)CNC(=O)c2ccc3c(c2)OCCO3)cc1OC,"inconclusive: 2.51 µM [activator, partial curve]",–
CCOc1ccc(/C=C(\C#N)C(=O)Nc2cccnc2)cc1,–,inactive: 4.95%
COc1ccc(-c2c(C)oc3cc(O)cc(O)c3c2=O)cc1OC,"inconclusive: 2.82 µM [activator, partial curve]",–
C=CCN1C(=O)C(O)(CC(=O)c2ccco2)c2cc(Br)ccc21 (stereo not given),–,inactive: 2.31%
CSc1nc(-c2ccccc2)nc(C(Cl)Cl)n1,"inconclusive: 6.31 µM [activator, partial curve, poor fit]",–
O=C(N/N=C/CCc1ccccc1)c1ccc(CN2c3cccc4cccc(c34)S2(=O)=O)cc1,"inconclusive: 11.2 µM [activator, partial curve]",–
O=C(NC(=S)Nc1ccc(S(=O)(=O)NC2CCCCC2)cc1)c1cccs1,"inconclusive: 22.4 µM [activator, partial curve, poor fit]",–
Cc1ccc(/C=C/c2ccc(N(C)C)cc2)[n+](C)c1,–,inactive: 0.845%
CNC(=S)N/N=C/c1cn(CCOc2ccccc2OC)c2ccccc12,"inconclusive: 22.4 µM [activator, single point]",–

SMILES,Potency,"activity, positive = growth rescue"
CC(C)NC(=S)NC(=O)c1ccc(Cl)cc1Cl,active: 7.94 µM,–
Cc1[nH]c2ccc(C(=O)NCCCN3CCOCC3)cc2c1C,"inconclusive: 4.47 µM [activator, full curve]",–
Cn1cc(C(=O)c2ccc(Cl)cc2Cl)cc1C(=O)N/N=C(\N)COc1ccc(Cl)cc1Cl,"inconclusive: 7.08 µM [activator, partial curve]",–
CC(c1ccccc1)n1c(Cn2ncc3ccccc3c2=O)n[nH]c1=S (stereo not given),–,inactive: 0.78%
CC(C)OC(=O)c1cn(-c2ccccc2)nc1-c1ccco1,–,inactive: -6.8%
CCOc1ccccc1OC(C)C(=O)Nc1ccc(S(=O)(=O)N2CCCC2)cc1 (stereo not given),"inconclusive: 3.98 µM [activator, single point]",–
O=C1c2ccccc2C(=O)N1CCCc1nc(-c2ccncc2)no1,–,inactive: 16.7%
CCc1ccc(NC(=O)CSc2nnc(CNC(=O)c3ccco3)o2)cc1,"inconclusive: 3.55 µM [activator, single point]",–
CCC(CC)NC(=O)/C=C/c1ccccc1Cl,–,inactive: -4.04%
O=C(c1cnn2c(C(F)(F)F)cc(-c3ccccc3)nc12)N1CCCc2ccccc21,–,inactive: -2.49%
CCOC(=O)C(=CNCC(=O)OC)C(=O)OCC,"inconclusive: 14.1 µM [activator, single point]",–
COc1ccc(NC(=O)[C@H](C)NC(=O)[C@@H]2Cc3ccccc3CN2C(=O)OC(C)(C)C)cc1,"inconclusive: 20 µM [activator, single point]",–
Nc1nonc1C(=O)N/N=C/c1cc(Br)ccc1O,"inconclusive: 2.51 µM [activator, partial curve]",–
CCc1[nH]c(=O)c(C#N)c2c1COC(C)(C)C2,"inconclusive: 1 µM [activator, full curve, poor fit]",–
CC(=O)Nc1ccc(S(=O)(=O)N2CCC(C(=O)NCc3ccncc3)CC2)cc1,"inconclusive: 3.16 µM [activator, single point]",–
CCCCC(=O)NC(c1ccc(C(C)C)cc1)c1ccc2cccnc2c1O (stereo not given),active: 7.08 µM,–
O=C(NCC(c1cccs1)N1CCOCC1)c1ccc(Cl)nc1 (stereo not given),"inconclusive: 14.1 µM [activator, single point]",–
CCN(CC(=O)NC1CCCC1)S(=O)(=O)c1ccc(Br)cc1,"inconclusive: 11.2 µM [activator, single point]",–
O=C(NCc1ccc(/C=c2\sc3n(c2=O)CCN=3)o1)C(=O)Nc1ccccc1,–,inactive: -0.0989%
CCOC(=O)c1cccc(NC(=O)CCc2nnc3ccc(N4CCCCC4)nn23)c1,"inconclusive: 3.98 µM [activator, single point]",–
O=C(CCNS(=O)(=O)c1ccc(Br)cc1)NCCc1ccccc1,–,inactive: -4.17%
Cc1ccc(C)c(NC(=S)NNC(=O)c2ccc(Br)o2)c1,"inconclusive: 22.4 µM [activator, single point]",–
Cc1ccc(S(=O)(=O)Nc2ccccc2C(=O)N2CCCCC2)cc1,–,inactive: 4.42%
Cc1ccc(-n2c(C)cc(/C=N/NC(N)=S)c2C)cc1,active: 11.2 µM,–
CCOC(=O)C1=C(CS(=O)(=O)c2ccc(F)cc2)NC(=O)NC1c1ccc(O)c(O)c1 (stereo not given),"inconclusive: 20 µM [activator, single point]",–

# As entered above:
# Potency, CCOC(=O)C1=C(C)N(C)C(=O)NC1c1cccc(O)c1 (stereo not given) reads inconclusive: 14.1 µM [activator, single point]
# activity, positive = growth rescue, O=C(CCNS(=O)(=O)c1ccc(Br)cc1)NCCc1ccccc1 reads inactive: -4.17%
# Potency, O=C(N/N=C/CCc1ccccc1)c1ccc(CN2c3cccc4cccc(c34)S2(=O)=O)cc1 reads inconclusive: 11.2 µM [activator, partial curve]
# Potency, CCN(CC(=O)NC1CCCC1)S(=O)(=O)c1ccc(Br)cc1 reads inconclusive: 11.2 µM [activator, single point]
# activity, positive = growth rescue, CCN(C(=O)CSc1nnc(SC)s1)c1c(N)n(Cc2ccccc2)c(=O)[nH]c1=O reads inactive: -4.7%
# activity, positive = growth rescue, COC(=O)C1=C(C)N(Cc2ccc(C)cc2)C(=O)/C1=C\c1ccc(O)c(OC)c1 reads inactive: 3.12%
